Measurements from patent publication US7303589B2 (L'Oreal S.A., priority 2003, dated 2007).

Experiments:
[1] = Color uptake on natural hair (90% natural white hairs), spectrocolorimeter L*a*b*; parameters: species or system human
Description: (§1) The compound was dissolved in deionized water and the pH was adjusted to 7.1 with dilute hydrochloric acid. The concentration of the compound in the medium was 1% by weight.
(§2) The dye solution thus obtained was applied to natural hair (90% white hairs) and chestnut-brown hair (tone height 4) with a bath ratio of 5:1, for 20 minutes at room temperature.
(§3) After dyeing, the hair was rinsed with water and dried at room temperature.
(§4) The color measurements were taken using a spectrocolorimeter (Minolta CM3600d, specular components included, illuminant D65, 10° angle).
Color Uptake on Natural Hair (90% of Natural White Hairs): […]

[2] = Color uptake on chestnut-brown hair, spectrocolorimeter L*a*b*; parameters: species or system human
Description: as §1, §2, §3, §4

[3] = dyed natural hair (90% white), 1% by weight in deionized water, pH 7.1, bath ratio 5:1, 20 minutes at room temperature, Minolta CM3600d, D65, 10°
[4] = dyed chestnut-brown hair (tone height 4), 1% by weight in deionized water, pH 7.1, bath ratio 5:1, 20 minutes at room temperature, Minolta CM3600d, D65, 10°

For `CN(C)c1ccc(/C=C/c2cccc[n+]2CCCCCC[n+]2ccccc2/C=C/c2ccc(N(C)C)cc2)cc1.[Br-].[Br-]` [Fluorescent Compound], the “L*” value [1, 3] was 47.05, the “a*” value [1, 3] was 28.12 and the “b*” value [1, 3] was 42.62. For the same compound, the “uptake of the dye into the hair (in words)” value ([1]; natural hair (90% white), 1% by weight, pH 7.1, 20 minutes) was “satisfactorily taken up into the hair”, the “uptake of the dye into the hair (in words)” value ([2]; chestnut-brown hair (tone height 4), 1% by weight, pH 7.1, 20 minutes) was “satisfactorily taken up into the hair” and the “L*” value [2, 4] was 23.66. For the same compound, the “a*” value [2, 4] was 4.78 and the “b*” value [2, 4] was 5.53.
